Biological target: Acetylcholinesterase (Homo sapiens, UniProt P22303)

Sequences of proteins named here, by UniProt entry; tags and fusion partners are left off. A change or cut given only in a name is not applied to a line headed by its entry.
UniProt P22303: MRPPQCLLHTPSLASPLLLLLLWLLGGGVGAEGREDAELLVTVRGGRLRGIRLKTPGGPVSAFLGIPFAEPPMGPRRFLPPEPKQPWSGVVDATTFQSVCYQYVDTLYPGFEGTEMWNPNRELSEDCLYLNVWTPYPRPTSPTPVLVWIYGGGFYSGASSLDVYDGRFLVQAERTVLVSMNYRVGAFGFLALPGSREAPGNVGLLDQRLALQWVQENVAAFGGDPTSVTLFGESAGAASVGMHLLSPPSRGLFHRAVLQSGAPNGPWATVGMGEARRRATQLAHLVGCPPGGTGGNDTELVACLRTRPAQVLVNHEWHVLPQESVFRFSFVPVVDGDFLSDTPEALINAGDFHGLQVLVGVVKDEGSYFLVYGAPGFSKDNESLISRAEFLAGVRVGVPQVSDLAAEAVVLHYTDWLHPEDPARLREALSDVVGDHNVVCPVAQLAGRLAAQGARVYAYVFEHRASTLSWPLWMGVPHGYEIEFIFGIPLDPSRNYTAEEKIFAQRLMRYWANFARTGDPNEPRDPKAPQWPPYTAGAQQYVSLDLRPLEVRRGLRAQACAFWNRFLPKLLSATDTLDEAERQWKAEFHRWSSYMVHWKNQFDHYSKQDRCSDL

Row | SMILES | IC50 | Ki
1 | COc1cccc(C2CC(c3cc(F)cc(F)c3)=NN2c2ccc(S(N)(=O)=O)cc2)c1OC (centres undefined) | 6.36 nM | 3.28 nM
2 | COc1ccc(OC)c(C2CC(c3cc(F)ccc3F)=NN2c2ccc(S(N)(=O)=O)cc2)c1 (centres undefined) | 6.36 nM | 3.28 nM

From ChEMBL document CHEMBL5260848, “Recent advancements in the development of bioactive pyrazoline derivatives” (Eur J Med Chem, 2020)
